PubChem BioAssay AID504793 | Drosophila RNAi Screening Center, 2011
The screen tested about 23,000 reagents; shown is a random part of those that have a named target and a result. In the full data, 62 (0.27%) were called active. 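Calls come from follow-up tests whose scores are not deposited, so confirmed genes may have low counts here; counts are not normalised per plate.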 The raw values are shown without normalisation. Unmarked entries are inactive. A plus sign joins genes that one reagent is predicted to hit.

Aim: 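Genes required for cells to halt at G2/M after double-strand DNA breaks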 (primary screen)
Cells: Drosophila S2R+ cells
Reagent: long dsRNA against Drosophila genes, about 0.25 µg dsRNA per well
Duration: 4 days of dsRNA, then 4 hours of drug before read-out
Challenge: doxorubicin 0.5 µM for 4 hours to cause double-strand breaks, in cells also given a low, harmless dose of dsRNA against nbs to sensitise the assay
Measurement: 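Mitotic index as the number of phospho-histone H3-positive cells in each well following doxorubicin, given as raw counts without normalisation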
Reading the numbers: mitotic cells: higher = more cells in mitosis, weaker G2 arrest
Rule for the call: 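Genes are called active only when high mitotic counts were reproduced with independent dsRNAs and mitosis was checked for delay without damage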
Calls: active = confirmed in follow-up tests; inactive = not confirmed

gene knocked down	dsRNA	mitotic cells, replicate 1
CG12863 (GeneID 36623)	DRSC06203	5
S-Lap4 (GeneID 326188)	DRSC10957	5
S-Lap4 (GeneID 326188)	DRSC25977	9
CG14109 (GeneID 39512)	DRSC10112	5
CG14109 (GeneID 39512)	DRSC25337	6
rg (GeneID 44531)	DRSC17726	4
rg (GeneID 44531)	DRSC18049	13
rg (GeneID 44531)	DRSC29144	3
CG14995 (GeneID 38487)	DRSC22991	11
SelR (GeneID 41309)	DRSC16071	7
CG15506 (GeneID 43498)	DRSC15047	17
CG8046 (GeneID 35936)	DRSC07059	2
CG4338 (GeneID 41849)	DRSC15564	6
Nin (GeneID 33757)	DRSC02007	5
sano (GeneID 37185)	DRSC06165	6
sano (GeneID 37185)	DRSC26307	4
CG7213 (GeneID 38924)	DRSC10787	3
MICU1 (GeneID 33999)	DRSC02752	2
TTLL6A (GeneID 37253)	DRSC06618	5
TTLL6A (GeneID 37253)	DRSC24494	6
Drsl2 (GeneID 38408)	DRSC08160	4
Drsl2 (GeneID 38408)	DRSC25541	9
CG33017 (GeneID 36811)	DRSC06573	7
CG33017 (GeneID 36811)	DRSC06574	6
Chrac-16 (GeneID 32166)	DRSC20343	5
Chrac-16 (GeneID 32166)	DRSC23575	1
SWIP (GeneID 32594)	DRSC19540	5
ImpL1 (GeneID 39499)	DRSC11197	6
ImpL1 (GeneID 39499)	DRSC28367	4
Uxs (GeneID 38911)	DRSC10941	4
Uxs (GeneID 38911)	DRSC28512	13
CG8093 (GeneID 36686)	DRSC07078	10
Zpr1 (GeneID 31851)	DRSC18432	2
CG15515 (GeneID 43538)	DRSC15054	8
eIF3m (GeneID 36565)	DRSC07142	8
eIF3m (GeneID 36565)	DRSC26908	4
clt (GeneID 117300)	DRSC04621	5
Nt5c (GeneID 35984)	DRSC06711	13
Nt5c (GeneID 35984)	DRSC27240	2
Rpp30 (GeneID 44392)	DRSC00320	7
CG14408 (GeneID 32407)	DRSC23396	4
CG11807 (GeneID 36683)	DRSC06087	8
Fis1 (GeneID 49892)	DRSC07772	10
Arl1 (GeneID 39745)	DRSC09667	6
CG1671 (GeneID 36019)	DRSC06617	12
Ir76a (GeneID 40157)	DRSC10987	3
CG6337 (GeneID 36530)	DRSC06977	5
CG6337 (GeneID 36530)	DRSC21870	11
JMJD5 (GeneID 38097)	DRSC08372	6
JMJD5 (GeneID 38097)	DRSC25820	7
Mst84B (GeneID 40840)	DRSC12579	2
Mst84B (GeneID 40840)	DRSC27767	7
CG10911 (GeneID 37058)	DRSC06008	10
CG11313 (GeneID 43646)	DRSC14295	10
CG11839 (GeneID 43006)	DRSC14398	6
Ppox (GeneID 42939)	DRSC17033	15
Ir47a (GeneID 36095)	DRSC06215	5
CG3168 (GeneID 31612)	DRSC18287	2
CG3168 (GeneID 31612)	DRSC25481	2
osa (GeneID 42130)	DRSC17022	12
Ars2 (GeneID 35539)	DRSC04893	6
CG6244 (GeneID 2768962)	DRSC10609	6
eIF3g1 (GeneID 31243)	DRSC18427	13
eIF3g1 (GeneID 31243)	DRSC29282	4
CG5327 + CG5493	DRSC25926	6
Sld5 (GeneID 43166)	DRSC14892	7
tw (GeneID 31024)	DRSC18537	3
frc + Coq4 + Gorab	DRSC29314	6
CG34457 (GeneID 5740661)	DRSC06924	6

The list goes on, starting with the last 14 of the part before.
gene knocked down	dsRNA	mitotic cells, replicate 1
Ppox (GeneID 42939)	DRSC17033	15
Ir47a (GeneID 36095)	DRSC06215	5
CG3168 (GeneID 31612)	DRSC18287	2
CG3168 (GeneID 31612)	DRSC25481	2
osa (GeneID 42130)	DRSC17022	12
Ars2 (GeneID 35539)	DRSC04893	6
CG6244 (GeneID 2768962)	DRSC10609	6
eIF3g1 (GeneID 31243)	DRSC18427	13
eIF3g1 (GeneID 31243)	DRSC29282	4
CG5327 + CG5493	DRSC25926	6
Sld5 (GeneID 43166)	DRSC14892	7
tw (GeneID 31024)	DRSC18537	3
frc + Coq4 + Gorab	DRSC29314	6
CG34457 (GeneID 5740661)	DRSC06924	6
Pkn (GeneID 35950)	DRSC06810	2
Pkn (GeneID 35950)	DRSC25936	7
shv (GeneID 33220)	DRSC00640	6
shv (GeneID 33220)	DRSC22122	7
shv (GeneID 33220)	DRSC26482	4
shv (GeneID 33220)	DRSC26483	4
Kif3C (GeneID 43820)	DRSC17209	4
Kif3C (GeneID 43820)	DRSC17210	18
CG5793 (GeneID 42505)	DRSC15874	10
CG5793 (GeneID 42505)	DRSC26692	9
slp1 (GeneID 33607)	DRSC00835	11
slp1 (GeneID 33607)	DRSC24204	8
ITP (GeneID 37921)	DRSC04222	4
CG18324 (GeneID 36568)	DRSC06721	8
CG18324 (GeneID 36568)	DRSC26600	8
Prosalpha4T1 (GeneID 42457)	DRSC16800	11
Prosalpha4T1 (GeneID 42457)	DRSC28895	8
CG6163 (GeneID 39274)	DRSC10595	6
CG6163 (GeneID 39274)	DRSC26527	8
HP6 (GeneID 33661)	DRSC00471	7
I-2 (GeneID 39156)	DRSC11194	9
I-2 (GeneID 39156)	DRSC23300	7
CG33301 (GeneID 2768917)	DRSC02778	7
CG33301 (GeneID 2768917)	DRSC25325	6
bowl (GeneID 33602)	DRSC00805	10
bowl (GeneID 33602)	DRSC28379	3
cue (GeneID 38174)	DRSC08248	5
Rrp6 (GeneID 41798)	DRSC16223	8
CG32847 (GeneID 318245)	DRSC22901	9
Nsf2 (GeneID 41694)	DRSC22104	9
Nsf2 (GeneID 41694)	DRSC27428	5
CG10137 (GeneID 35241)	DRSC02014	4
CG10137 (GeneID 35241)	DRSC02015	8
CG10137 (GeneID 35241)	DRSC27098	4
nyo (GeneID 43716)	DRSC15029	10
nyo (GeneID 43716)	DRSC15030	15
l(1)sc (GeneID 30983)	DRSC18789	12
l(1)sc (GeneID 30983)	DRSC28734	2
CG12057 (GeneID 31854)	DRSC17797	15
BomBc3 (GeneID 50055)	DRSC15873	8
BomBc3 (GeneID 50055)	DRSC29503	5
